PubChem BioAssay AID1224830 | NIAID | 2016
Screen: 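Genes whose knock-down alters the TNF-alpha reporter response to LPS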 (primary screen). Cell system: human THP-1 monocytic leukaemia cells, TNF dual-luciferase reporter clone, PMA-differentiated to macrophage-like cells. Knock-down reagent: siRNA pool against human genes, 50 nM. Duration: LPS for 4 h, given about 3 days after siRNA transfection. Conditions: bacterial LPS (TLR4 ligand), 10 ng/ml. Measured: 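TNF firefly reporter luminescence divided by renilla, normalised to the plate median, then turned into a robust z-score for each replicate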. Direction: TNF reporter robust z-score: higher = stronger TNF reporter response to LPS. Rule for the call: 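Each well counts as active if its z-score is over 2.8 or under -1.5; controls are left without a call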.
In all, the deposit lists about 18,000 reagents; shown is an unselected part. Over the whole deposit, about 2,900 (16%) were called active. 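Calls are made per well; low scores hint the gene aids the LPS response, high scores that it dampens it.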 Repeated entries: four replicate wells of each siRNA pool. No sequences are given here.

no.	gene symbol	TNF reporter robust z-score	Outcome
1	CDK10	2.09	inactive
2	CDK10	1.97	inactive
3	CDK10	2.05	inactive
4	CDK10	1.34	inactive
5	CARMIL1	2.01	inactive
6	CARMIL1	2.05	inactive
7	CARMIL1	0.54	inactive
8	CARMIL1	1.43	inactive
9	SSMEM1	-0.75	inactive
10	SSMEM1	-0.85	inactive
11	SSMEM1	-0.44	inactive
12	SSMEM1	-1.07	inactive
13	RNASET2	0.09	inactive
14	RNASET2	1.74	inactive
15	RNASET2	2.14	inactive
16	RNASET2	2.49	inactive
17	APEX2	-0.11	inactive
18	APEX2	0.52	inactive
19	APEX2	0.05	inactive
20	APEX2	-0.18	inactive
21	SRMS	-0.01	inactive
22	SRMS	-0.76	inactive
23	SRMS	-0.9	inactive
24	SRMS	-0.75	inactive

Next part, starting with the last 4 of the part before.
no.	gene symbol	TNF reporter robust z-score	Outcome
21	SRMS	-0.01	inactive
22	SRMS	-0.76	inactive
23	SRMS	-0.9	inactive
24	SRMS	-0.75	inactive
25	ELMO2	0.43	inactive
26	ELMO2	2.08	inactive
27	ELMO2	1.97	inactive
28	ELMO2	2.09	inactive
29	RAPGEFL1	0.76	inactive
30	RAPGEFL1	0.63	inactive
31	RAPGEFL1	1.36	inactive
32	RAPGEFL1	0.68	inactive
33	GPR151	0.36	inactive
34	GPR151	-0.65	inactive
35	GPR151	-0.43	inactive
36	GPR151	0.57	inactive
37	SIGLECL1	1.13	inactive
38	SIGLECL1	1.41	inactive
39	SIGLECL1	1.3	inactive
40	SIGLECL1	1.81	inactive
41	MACROH2A2	-0.84	inactive
42	MACROH2A2	-0.76	inactive
43	MACROH2A2	-1.03	inactive
44	MACROH2A2	-0.74	inactive
45	ADHFE1	0.72	inactive
46	ADHFE1	0.6	inactive
47	ADHFE1	0.17	inactive
48	ADHFE1	0.55	inactive
